Measured values as given in article doi:10.1101/2021.09.16.460643 (bioRxiv, 2021).
These are yes or no findings as the source states them, for the method shown. In cells and extracts the contact can be indirect. Some binding calls cover weakened binding; strength is not graded here. Tags and fused reporters may be left off the sequences shown.

Target: T1, full length ETR1-mCherry (Arabidopsis thaliana) (UniProt P49333)
T1 sequence: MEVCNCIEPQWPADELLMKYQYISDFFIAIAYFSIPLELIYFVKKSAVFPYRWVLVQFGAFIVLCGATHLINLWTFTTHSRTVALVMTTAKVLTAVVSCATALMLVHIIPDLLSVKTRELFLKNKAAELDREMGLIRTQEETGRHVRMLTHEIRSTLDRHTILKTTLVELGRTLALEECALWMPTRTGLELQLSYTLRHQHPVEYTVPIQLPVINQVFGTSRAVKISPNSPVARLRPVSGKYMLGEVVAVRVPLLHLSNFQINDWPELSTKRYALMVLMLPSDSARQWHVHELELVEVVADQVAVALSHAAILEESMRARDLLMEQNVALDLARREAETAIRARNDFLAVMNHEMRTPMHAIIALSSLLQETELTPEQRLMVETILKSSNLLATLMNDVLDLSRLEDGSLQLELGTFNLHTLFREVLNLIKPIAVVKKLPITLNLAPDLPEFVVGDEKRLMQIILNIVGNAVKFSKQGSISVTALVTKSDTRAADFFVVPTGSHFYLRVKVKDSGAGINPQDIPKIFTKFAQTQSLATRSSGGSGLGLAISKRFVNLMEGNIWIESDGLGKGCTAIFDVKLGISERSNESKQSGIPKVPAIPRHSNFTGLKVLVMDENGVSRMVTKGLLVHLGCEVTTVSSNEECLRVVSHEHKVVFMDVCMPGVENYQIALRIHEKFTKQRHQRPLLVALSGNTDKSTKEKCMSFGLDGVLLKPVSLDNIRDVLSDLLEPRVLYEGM
Assay: FRET or BRET

B1: full length AHK5-GFP (protein, UniProt Q3S4A7 1-922)
chain: MVCEMETDQIEEMDVEVLSSMWPEDVGTEADKQFNVEKPAGDLDTLKEVTIETRTIADMTRLPNLLNSTHQGSSQLTNLVKQWEYMQDNAVRLLKEELKNLDRQREEAEAKELKIIEEYKFESNEPENVPVLDETSDLFRRFRQKKRDALVDSKKIEIYEEFDTVAYWKQKALSLEKMLEASTERERRLMEKLSESLKTMESQSAPVQELTQNLKRAEGFLHFILQNAPIVMGHQDKDLRYLFIYNKYPSLREQDILGKTDVEIFHGGGVKESEDFKREVLEKGKASKREITFTTDLFGSKTFLIYVEPVYNKAGEKIGINYMGMEVTDQVVKREKMAKLREDNAVRKAMESELNKTIHITEETMRAKQMLATMSHEIRSPLSGVVGMAEILSTTKLDKEQRQLLNVMISSGDLVLQLINDILDLSKVESGVMRLEATKFRPREVVKHVLQTAAASLKKSLTLEGNIADDVPIEVVGDVLRIRQILTNLISNAIKFTHEGNVGIKLQVISEPSFVRDNALNADTEEHEQNGLTETSVWICCDVWDTGIGIPENALPCLFKKYMQASADHARKYGGTGLGLAICKQLVELMGGQLTVTSRVSEGSTFTFILPYKVGRSDDYSDDQDEFSDMADQQSEPDDTAEGYFQFKPLLGSIYSNGGPGISNDFLPHKVMLTSPIKLINGFVADPSNNTGQSEMLQLENGGYMDESKLETSSGHCPESAHQYENGNGRCFSKESESCSSSQASSEGGTLEMESELTVSSHREEEKAETEVKETSKPKILLVEDNKINIMVAKSMMKQLGHTMDIANNGVEAITAINSSSYDLVLMDVCMPVLDGLKATRLIRSYEETGNWNAAIEAGVDISTSENEQVCMRPTNRLPIIAMTANTLAESSEECYANGMDSFISKPVTLQKLRECLQQYLH
B1 was tested, and the binding was “binds”.
